Data as given in PubChem BioAssay AID1259254 (NCATS, 2017)
The whole screen tested about 59,000 reagents; below is a random part of them. Over the whole deposit, about 1,550 (2.6%) are marked active. 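G2 share is only a proxy for re-replication; each gene was hit by three separate siRNAs, and active genes were retested.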 Reagents against one gene are numbered here. Further read-outs or replicates are left out here. The record does not give: the amount of reagent.

Screen: 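Finding genes that stop cells copying their DNA twice in one cycle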 (primary screen)
System: human HCT116 colorectal cancer cells
Reagents: single siRNA against human genes
Time to read-out: 3 days
Measurement: 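Nuclei stained with Hoechst and imaged; cell-cycle phase assigned by DNA content; G2 share scaled per plate, non-targeting siRNA 0%, GMNN siRNA 100%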
Reading the numbers: G2 robust z-score: higher = more G2 cells, more excess DNA replication
Call rule: 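Active siRNAs have a G2 robust z of 5 or more median absolute deviations over the median, which in these data means about 38% or higher of GMNN control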

Target gene	reagent	G2 robust z-score	call
DCAKD (dephospho-CoA kinase domain containing)	1	-0.949	inactive
DCAKD (dephospho-CoA kinase domain containing)	2	-1.36	inactive
DCAKD (dephospho-CoA kinase domain containing)	3	-0.301	inactive
GJD4 (gap junction protein delta 4)	1	6.18	active
GJD4 (gap junction protein delta 4)	2	6.15	active
GJD4 (gap junction protein delta 4)	3	3.53	inactive
HK2 (hexokinase 2)	1	-0.296	inactive
HK2 (hexokinase 2)	2	-0.515	inactive
HK2 (hexokinase 2)	3	-0.389	inactive
CD83 (CD83 molecule)	1	0.522	inactive
CD83 (CD83 molecule)	2	5.67	active
CD83 (CD83 molecule)	3	5.26	active
SEMA5B (semaphorin 5B)	1	-0.0714	inactive
SEMA5B (semaphorin 5B)	2	5.08	active
SEMA5B (semaphorin 5B)	3	-0.421	inactive
OAT (ornithine aminotransferase)	1	2.12	inactive
OAT (ornithine aminotransferase)	2	3.07	inactive
OAT (ornithine aminotransferase)	3	-0.84	inactive
LNX2 (ligand of numb-protein X 2)	1	0.249	inactive
LNX2 (ligand of numb-protein X 2)	2	-0.359	inactive
LNX2 (ligand of numb-protein X 2)	3	-0.154	inactive
ACER2 (alkaline ceramidase 2)	1	0.399	inactive
ACER2 (alkaline ceramidase 2)	2	-0.314	inactive
ACER2 (alkaline ceramidase 2)	3	5.12	active
GOLGA7 (golgin A7)	1	-0.694	inactive
GOLGA7 (golgin A7)	2	-0.625	inactive
GOLGA7 (golgin A7)	3	-1.18	inactive
EXOC6B (exocyst complex component 6B)	1	-0.0649	inactive
EXOC6B (exocyst complex component 6B)	2	1.21	inactive
EXOC6B (exocyst complex component 6B)	3	1.49	inactive
ZCCHC4 (zinc finger CCHC-type containing 4)	1	-0.365	inactive
ZCCHC4 (zinc finger CCHC-type containing 4)	2	-1.16	inactive
ZCCHC4 (zinc finger CCHC-type containing 4)	3	0.275	inactive
CLVS1 (clavesin 1)	1	-0.716	inactive
CLVS1 (clavesin 1)	2	-0.0512	inactive
CLVS1 (clavesin 1)	3	-0.0306	inactive
CDH23 (cadherin related 23)	1	-0.129	inactive
CDH23 (cadherin related 23)	2	-0.113	inactive
CDH23 (cadherin related 23)	3	1.69	inactive
APBB2 (amyloid beta precursor protein binding family B member 2)	1	-1.12	inactive
APBB2 (amyloid beta precursor protein binding family B member 2)	2	-1.11	inactive
APBB2 (amyloid beta precursor protein binding family B member 2)	3	1.37	inactive
PLA2G6 (phospholipase A2 group VI)	1	0.97	inactive
PLA2G6 (phospholipase A2 group VI)	2	-0.0792	inactive
PLA2G6 (phospholipase A2 group VI)	3	0.432	inactive

Continued (9 carried over from the part before).
Target gene	reagent	G2 robust z-score	call
CDH23 (cadherin related 23)	1	-0.129	inactive
CDH23 (cadherin related 23)	2	-0.113	inactive
CDH23 (cadherin related 23)	3	1.69	inactive
APBB2 (amyloid beta precursor protein binding family B member 2)	1	-1.12	inactive
APBB2 (amyloid beta precursor protein binding family B member 2)	2	-1.11	inactive
APBB2 (amyloid beta precursor protein binding family B member 2)	3	1.37	inactive
PLA2G6 (phospholipase A2 group VI)	1	0.97	inactive
PLA2G6 (phospholipase A2 group VI)	2	-0.0792	inactive
PLA2G6 (phospholipase A2 group VI)	3	0.432	inactive
IL18 (interleukin 18)	1	-0.646	inactive
IL18 (interleukin 18)	2	-1.2	inactive
IL18 (interleukin 18)	3	-1.04	inactive
NKAIN3 (sodium/potassium transporting ATPase interacting 3)	1	3.63	inactive
NKAIN3 (sodium/potassium transporting ATPase interacting 3)	2	-0.602	inactive
NKAIN3 (sodium/potassium transporting ATPase interacting 3)	3	0.749	inactive
CHURC1 (churchill domain containing 1)	1	0.0757	inactive
CHURC1 (churchill domain containing 1)	2	-0.156	inactive
CHURC1 (churchill domain containing 1)	3	1.09	inactive
LOC107985384	1	-0.12	inactive
LOC107985384	2	-0.337	inactive
LOC107985384	3	-0.118	inactive
LINC01973 (long independently transcribed non-coding RNA 1973)	1	-0.831	inactive
LINC01973 (long independently transcribed non-coding RNA 1973)	2	0.311	inactive
LINC01973 (long independently transcribed non-coding RNA 1973)	3	0.781	inactive
ZNF394 (zinc finger protein 394)	1	-0.853	inactive
ZNF394 (zinc finger protein 394)	2	2.71	inactive
ZNF394 (zinc finger protein 394)	3	0.107	inactive
CPT2 (carnitine palmitoyltransferase 2)	1	1.72	inactive
CPT2 (carnitine palmitoyltransferase 2)	2	1.11	inactive
CPT2 (carnitine palmitoyltransferase 2)	3	0.951	inactive
FREM3 (FRAS1 related extracellular matrix 3)	1	1.11	inactive
FREM3 (FRAS1 related extracellular matrix 3)	2	3.1	inactive
FREM3 (FRAS1 related extracellular matrix 3)	3	-0.548	inactive
